According to paper PMC11574364:
Construct, isoform or probe ends are uncertain for at least one entry. For part of these data: Tags and fusion partners may be left off the protein sequences shown.

The chains behind the UniProt entries cited, without tags or fusion partners. Where a name states a change or a piece, a line headed by the entry shows the natural chain unless it says otherwise.
UniProt P16581: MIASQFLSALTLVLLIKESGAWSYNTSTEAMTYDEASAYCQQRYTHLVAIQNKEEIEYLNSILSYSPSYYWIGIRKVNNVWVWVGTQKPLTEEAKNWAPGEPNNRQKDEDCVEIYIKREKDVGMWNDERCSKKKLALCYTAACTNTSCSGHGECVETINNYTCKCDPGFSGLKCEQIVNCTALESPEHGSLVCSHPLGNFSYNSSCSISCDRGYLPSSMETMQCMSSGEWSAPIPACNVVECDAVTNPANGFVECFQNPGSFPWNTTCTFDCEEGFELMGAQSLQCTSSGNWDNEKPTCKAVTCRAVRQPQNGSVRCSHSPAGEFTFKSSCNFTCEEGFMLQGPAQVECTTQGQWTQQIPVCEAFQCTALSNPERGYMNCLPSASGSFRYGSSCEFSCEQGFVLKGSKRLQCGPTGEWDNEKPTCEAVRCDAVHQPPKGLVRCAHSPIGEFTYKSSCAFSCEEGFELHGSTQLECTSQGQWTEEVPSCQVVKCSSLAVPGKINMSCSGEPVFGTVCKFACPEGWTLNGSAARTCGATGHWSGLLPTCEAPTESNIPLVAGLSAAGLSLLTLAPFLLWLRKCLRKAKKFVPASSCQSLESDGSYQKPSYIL
UniProt Q9ULM6, whole entry: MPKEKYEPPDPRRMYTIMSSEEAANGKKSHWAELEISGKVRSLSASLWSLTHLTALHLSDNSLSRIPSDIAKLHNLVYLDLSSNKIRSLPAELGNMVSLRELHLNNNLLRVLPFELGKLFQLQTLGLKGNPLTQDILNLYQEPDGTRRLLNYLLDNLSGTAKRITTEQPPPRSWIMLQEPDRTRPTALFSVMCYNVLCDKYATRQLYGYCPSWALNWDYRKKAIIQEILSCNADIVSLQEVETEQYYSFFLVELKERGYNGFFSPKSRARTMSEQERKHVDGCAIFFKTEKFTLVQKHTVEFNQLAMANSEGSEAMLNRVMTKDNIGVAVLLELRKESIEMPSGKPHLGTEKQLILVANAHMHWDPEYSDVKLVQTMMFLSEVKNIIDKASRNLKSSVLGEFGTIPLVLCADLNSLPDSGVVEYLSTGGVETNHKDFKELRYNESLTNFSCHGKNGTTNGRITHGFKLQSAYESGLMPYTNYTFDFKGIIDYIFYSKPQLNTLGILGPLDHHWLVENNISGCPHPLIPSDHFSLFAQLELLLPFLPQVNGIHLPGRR
UniProt Q8NF99: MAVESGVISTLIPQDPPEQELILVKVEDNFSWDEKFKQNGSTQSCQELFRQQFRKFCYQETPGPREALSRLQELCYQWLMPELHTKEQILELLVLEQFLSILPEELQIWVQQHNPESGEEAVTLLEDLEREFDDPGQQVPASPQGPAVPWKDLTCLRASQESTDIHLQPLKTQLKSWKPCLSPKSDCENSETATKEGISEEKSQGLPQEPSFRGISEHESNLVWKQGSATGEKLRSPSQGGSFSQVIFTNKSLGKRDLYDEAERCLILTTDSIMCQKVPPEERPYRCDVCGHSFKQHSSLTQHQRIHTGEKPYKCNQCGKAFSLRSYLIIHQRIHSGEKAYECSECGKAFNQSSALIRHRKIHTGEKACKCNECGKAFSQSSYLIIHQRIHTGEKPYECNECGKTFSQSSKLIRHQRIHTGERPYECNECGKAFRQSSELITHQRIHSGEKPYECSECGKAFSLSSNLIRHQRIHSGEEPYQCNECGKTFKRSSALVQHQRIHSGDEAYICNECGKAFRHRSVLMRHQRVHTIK
UniProt Q13021: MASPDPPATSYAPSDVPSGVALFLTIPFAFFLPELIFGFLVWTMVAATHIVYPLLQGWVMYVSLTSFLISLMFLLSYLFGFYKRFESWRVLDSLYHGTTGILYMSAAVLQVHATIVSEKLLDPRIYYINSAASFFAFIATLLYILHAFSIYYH
UniProt Q96RR4: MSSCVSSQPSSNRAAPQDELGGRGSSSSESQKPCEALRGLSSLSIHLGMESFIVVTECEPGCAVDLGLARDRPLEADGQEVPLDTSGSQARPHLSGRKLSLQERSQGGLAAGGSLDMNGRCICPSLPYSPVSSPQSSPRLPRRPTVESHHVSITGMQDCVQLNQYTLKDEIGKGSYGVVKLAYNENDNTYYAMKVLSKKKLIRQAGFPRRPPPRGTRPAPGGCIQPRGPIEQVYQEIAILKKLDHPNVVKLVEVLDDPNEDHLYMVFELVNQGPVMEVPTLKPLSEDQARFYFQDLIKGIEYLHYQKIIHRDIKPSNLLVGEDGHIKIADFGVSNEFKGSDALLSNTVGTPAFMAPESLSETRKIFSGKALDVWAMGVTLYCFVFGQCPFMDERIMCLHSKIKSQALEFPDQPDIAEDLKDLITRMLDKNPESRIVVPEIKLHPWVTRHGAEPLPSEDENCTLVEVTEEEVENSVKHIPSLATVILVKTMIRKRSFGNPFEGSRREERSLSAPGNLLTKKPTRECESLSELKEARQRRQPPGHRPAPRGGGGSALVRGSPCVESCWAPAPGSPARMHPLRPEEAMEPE
UniProt Q96HA8: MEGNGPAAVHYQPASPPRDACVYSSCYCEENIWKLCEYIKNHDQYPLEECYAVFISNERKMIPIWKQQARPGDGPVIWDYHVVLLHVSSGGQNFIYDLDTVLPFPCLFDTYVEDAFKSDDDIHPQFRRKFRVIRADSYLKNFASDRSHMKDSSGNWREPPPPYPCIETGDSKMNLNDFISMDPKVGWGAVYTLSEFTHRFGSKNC

Experiments:
Experiment in all cases: human ORF protein microarray
HDHD2 (Homo sapiens) = molecular target: T1, HDHD2 (Homo sapiens) (UniProt Q9H0R4); settings: 5' phosphate; Domain array: 20 mM Tris-HCl pH 7.4, 200 mM KCl, 0.2 mM EDTA, 0.05% NP40, 2 ug/ul heparin, overnight 4 C. ORF array: PBS pH 7.0 with RNase inhibitor, 100 ng RNA, 1 h.; recombinant protein; protein details: N-terminal GST-6xHis; label: internal DY647 at G18; letters put together from the description
T1 sequence (looked up, limits assumed): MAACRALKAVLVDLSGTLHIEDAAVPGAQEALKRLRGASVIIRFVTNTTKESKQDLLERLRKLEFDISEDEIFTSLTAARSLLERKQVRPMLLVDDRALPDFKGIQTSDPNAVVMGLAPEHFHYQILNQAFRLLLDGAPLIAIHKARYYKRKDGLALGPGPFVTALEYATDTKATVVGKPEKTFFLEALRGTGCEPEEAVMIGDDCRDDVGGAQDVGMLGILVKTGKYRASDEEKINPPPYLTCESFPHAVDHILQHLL

SELE (Homo sapiens) = SELE (Homo sapiens) (UniProt P16581); settings: 5' phosphate; Domain array: 20 mM Tris-HCl pH 7.4, 200 mM KCl, 0.2 mM EDTA, 0.05% NP40, 2 ug/ul heparin, overnight 4 C. ORF array: PBS pH 7.0 with RNase inhibitor, 100 ng RNA, 1 h.; recombinant protein; protein details: N-terminal GST-6xHis; label: internal DY647 at G18; letters put together from the description
CNOT6 (Homo sapiens) = CNOT6 (Homo sapiens) (UniProt Q9ULM6); settings: 5' phosphate; Domain array: 20 mM Tris-HCl pH 7.4, 200 mM KCl, 0.2 mM EDTA, 0.05% NP40, 2 ug/ul heparin, overnight 4 C. ORF array: PBS pH 7.0 with RNase inhibitor, 100 ng RNA, 1 h.; recombinant protein; protein details: N-terminal GST-6xHis; label: internal DY647 at G18; letters put together from the description
FLI1 (Homo sapiens) = molecular target: T2, FLI1 (Homo sapiens) (UniProt Q01543); settings: 5' phosphate; Domain array: 20 mM Tris-HCl pH 7.4, 200 mM KCl, 0.2 mM EDTA, 0.05% NP40, 2 ug/ul heparin, overnight 4 C. ORF array: PBS pH 7.0 with RNase inhibitor, 100 ng RNA, 1 h.; recombinant protein; protein details: N-terminal GST-6xHis; label: internal DY647 at G18; letters put together from the description
T2 sequence (looked up, limits assumed): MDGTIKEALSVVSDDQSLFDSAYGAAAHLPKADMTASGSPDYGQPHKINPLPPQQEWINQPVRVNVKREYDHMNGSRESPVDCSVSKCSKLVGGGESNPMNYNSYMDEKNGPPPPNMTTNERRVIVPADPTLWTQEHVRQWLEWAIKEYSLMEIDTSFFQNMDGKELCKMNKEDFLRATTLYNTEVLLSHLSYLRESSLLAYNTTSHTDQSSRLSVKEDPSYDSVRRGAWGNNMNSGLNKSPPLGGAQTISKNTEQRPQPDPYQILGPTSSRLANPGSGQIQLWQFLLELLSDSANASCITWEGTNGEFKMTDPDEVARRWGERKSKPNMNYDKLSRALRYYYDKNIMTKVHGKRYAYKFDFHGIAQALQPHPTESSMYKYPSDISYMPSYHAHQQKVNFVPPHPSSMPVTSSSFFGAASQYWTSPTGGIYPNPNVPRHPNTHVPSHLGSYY

ZNF397 (Homo sapiens) = ZNF397 (Homo sapiens) (UniProt Q8NF99); settings: 5' phosphate; Domain array: 20 mM Tris-HCl pH 7.4, 200 mM KCl, 0.2 mM EDTA, 0.05% NP40, 2 ug/ul heparin, overnight 4 C. ORF array: PBS pH 7.0 with RNase inhibitor, 100 ng RNA, 1 h.; recombinant protein; protein details: N-terminal GST-6xHis; label: internal DY647 at G18; letters put together from the description
TIA1 (Homo sapiens) = molecular target: T3, TIA1 (Homo sapiens) (UniProt P31483); settings: 5' phosphate; Domain array: 20 mM Tris-HCl pH 7.4, 200 mM KCl, 0.2 mM EDTA, 0.05% NP40, 2 ug/ul heparin, overnight 4 C. ORF array: PBS pH 7.0 with RNase inhibitor, 100 ng RNA, 1 h.; recombinant protein; protein details: N-terminal GST-6xHis; label: internal DY647 at G18; letters put together from the description
T3 sequence (looked up, limits assumed): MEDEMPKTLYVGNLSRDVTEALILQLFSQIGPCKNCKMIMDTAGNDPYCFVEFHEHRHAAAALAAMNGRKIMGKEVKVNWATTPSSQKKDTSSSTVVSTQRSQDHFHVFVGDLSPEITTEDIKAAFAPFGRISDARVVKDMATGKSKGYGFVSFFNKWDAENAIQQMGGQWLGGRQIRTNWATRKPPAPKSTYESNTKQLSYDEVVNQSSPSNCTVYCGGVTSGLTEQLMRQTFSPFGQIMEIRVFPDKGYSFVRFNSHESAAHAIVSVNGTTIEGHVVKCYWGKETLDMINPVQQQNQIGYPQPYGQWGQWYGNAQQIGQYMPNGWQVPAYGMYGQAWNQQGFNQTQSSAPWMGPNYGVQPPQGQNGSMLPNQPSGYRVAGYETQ

SRP9 (Homo sapiens) = molecular target: T4, SRP9 (Homo sapiens) (UniProt P49458); settings: 5' phosphate; Domain array: 20 mM Tris-HCl pH 7.4, 200 mM KCl, 0.2 mM EDTA, 0.05% NP40, 2 ug/ul heparin, overnight 4 C. ORF array: PBS pH 7.0 with RNase inhibitor, 100 ng RNA, 1 h.; recombinant protein; protein details: N-terminal GST-6xHis; label: internal DY647 at G18; letters put together from the description
T4 sequence (looked up, limits assumed): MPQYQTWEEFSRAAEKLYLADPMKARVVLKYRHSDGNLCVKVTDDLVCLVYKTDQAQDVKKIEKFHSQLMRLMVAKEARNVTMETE

MALL (Homo sapiens) = MALL (Homo sapiens) (UniProt Q13021); settings: 5' phosphate; amino-C6 U at position 18; Domain array: 20 mM Tris-HCl pH 7.4, 200 mM KCl, 0.2 mM EDTA, 0.05% NP40, 2 ug/ul heparin, overnight 4 C. ORF array: PBS pH 7.0 with RNase inhibitor, 100 ng RNA, 1 h.; recombinant protein; protein details: N-terminal GST-6xHis; label: internal Cy5 or DY647
EDN3 (Homo sapiens) = molecular target: T5, EDN3 (Homo sapiens) (UniProt P14138); settings: 5' phosphate; amino-C6 U at position 18; Domain array: 20 mM Tris-HCl pH 7.4, 200 mM KCl, 0.2 mM EDTA, 0.05% NP40, 2 ug/ul heparin, overnight 4 C. ORF array: PBS pH 7.0 with RNase inhibitor, 100 ng RNA, 1 h.; recombinant protein; protein details: N-terminal GST-6xHis; label: internal Cy5 or DY647
T5 sequence (looked up, limits assumed): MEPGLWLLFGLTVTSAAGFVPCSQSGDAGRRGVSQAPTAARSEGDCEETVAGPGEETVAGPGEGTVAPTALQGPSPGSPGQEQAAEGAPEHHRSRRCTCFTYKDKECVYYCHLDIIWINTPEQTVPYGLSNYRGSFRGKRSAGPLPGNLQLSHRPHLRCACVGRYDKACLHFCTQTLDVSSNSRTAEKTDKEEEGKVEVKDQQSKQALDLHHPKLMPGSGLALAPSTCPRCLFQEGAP

CAMKK2 (Homo sapiens) = CAMKK2 (Homo sapiens) (UniProt Q96RR4); settings: 5' phosphate; amino-C6 U at position 18; Domain array: 20 mM Tris-HCl pH 7.4, 200 mM KCl, 0.2 mM EDTA, 0.05% NP40, 2 ug/ul heparin, overnight 4 C. ORF array: PBS pH 7.0 with RNase inhibitor, 100 ng RNA, 1 h.; recombinant protein; protein details: N-terminal GST-6xHis; label: internal Cy5 or DY647
C8orf32 (Homo sapiens) = C8orf32 (Homo sapiens) (UniProt Q96HA8); settings: 5' phosphate; amino-C6 U at position 18; Domain array: 20 mM Tris-HCl pH 7.4, 200 mM KCl, 0.2 mM EDTA, 0.05% NP40, 2 ug/ul heparin, overnight 4 C. ORF array: PBS pH 7.0 with RNase inhibitor, 100 ng RNA, 1 h.; recombinant protein; protein details: N-terminal GST-6xHis; label: internal Cy5 or DY647
EFHA2 (Homo sapiens) = molecular target: T6, EFHA2 (Homo sapiens) (UniProt Q86XE3); settings: 5' phosphate; amino-C6 U at position 18; Domain array: 20 mM Tris-HCl pH 7.4, 200 mM KCl, 0.2 mM EDTA, 0.05% NP40, 2 ug/ul heparin, overnight 4 C. ORF array: PBS pH 7.0 with RNase inhibitor, 100 ng RNA, 1 h.; recombinant protein; protein details: N-terminal GST-6xHis; label: internal Cy5 or DY647
T6 sequence (looked up, limits assumed): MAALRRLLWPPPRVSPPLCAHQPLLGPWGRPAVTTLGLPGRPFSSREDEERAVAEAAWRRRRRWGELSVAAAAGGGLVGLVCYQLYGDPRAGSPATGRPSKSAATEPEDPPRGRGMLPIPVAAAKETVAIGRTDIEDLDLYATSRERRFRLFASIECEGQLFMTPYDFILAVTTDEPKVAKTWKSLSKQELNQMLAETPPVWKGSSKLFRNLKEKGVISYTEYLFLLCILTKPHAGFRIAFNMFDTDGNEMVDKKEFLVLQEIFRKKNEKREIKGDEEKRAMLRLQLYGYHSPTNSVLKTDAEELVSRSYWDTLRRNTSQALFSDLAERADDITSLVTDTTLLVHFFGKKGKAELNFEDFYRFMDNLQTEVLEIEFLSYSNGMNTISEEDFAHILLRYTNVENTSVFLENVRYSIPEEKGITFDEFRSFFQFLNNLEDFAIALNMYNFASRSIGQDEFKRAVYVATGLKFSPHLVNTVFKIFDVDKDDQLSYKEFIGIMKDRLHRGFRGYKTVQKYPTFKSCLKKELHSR

Measured: binding result

CAGUGCAAUGAUGAAAGGGCAU [miR-130b (internal labeling)]
binds: HDHD2 (Homo sapiens) | SELE (Homo sapiens) | CNOT6 (Homo sapiens) | FLI1 (Homo sapiens) | ZNF397 (Homo sapiens)

UAGCUUAUCAGACUGAUGUUGA [miR-21 (internal labeling)]
binds: TIA1 (Homo sapiens) | SRP9 (Homo sapiens)

UGAGGUAGUAGGUUGUGUGGUU [let-7b (internal labeling)]
binds: MALL (Homo sapiens) | EDN3 (Homo sapiens) | CAMKK2 (Homo sapiens) | C8orf32 (Homo sapiens) | EFHA2 (Homo sapiens)
